Data source: PubChem BioAssay AID504791 (Drosophila RNAi Screening Center, 2011)

Test: 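Factors in Argonaute-based small RNA production and activity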 (primary screen)
Cells: Drosophila S2-derived reporter cells
Reagents: long dsRNA against Drosophila genes, about 150-250 ng dsRNA per well (siRNA assay); about 80-120 ng (miRNA assay)
Time to read-out: about 5 days (siRNA assay); about 4 days (miRNA assay)
Conditions: copper sulfate induction of reporters: 25 µM (siRNA assay); 200 mM stated (miRNA assay), 1-2 days before reading
Read-out: 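Per-well ratio of Renilla over firefly light, expressed relative to that plate's average ratio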
Units: stable assay Renilla, run 1 in luminescence; stable assay firefly, run 1 in luminescence
Active means: 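a well was a first-pass pick when its plate-scaled ratio rose above 1.5 (siRNA assay) or 1.6 (miRNA assay), or dropped below 0.6; a gene counted only if two separate dsRNAs agreed on retest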
The deposit covers about 23,000 reagents; shown is a random part of those with a known target gene and a result. Over the whole deposit, 199 (0.86%) got an active call. 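Plate-scaled ratios behind the calls are not deposited; printed light signals are raw; many rows marked increased or decreased are still called inactive.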 The record does not give: the direction of the score.

CG11983 (GeneID 41081) [DRSC14458]: stable assay Renilla, run 1 = 7167; stable assay firefly, run 1 = 4.20e5; call = inactive
CG16721 (GeneID 31520) [DRSC18113]: stable assay Renilla, run 1 = 10079; stable assay firefly, run 1 = 7.99e5; call = inactive
bon (GeneID 44235) [DRSC16914]: stable assay Renilla, run 1 = 9074; stable assay firefly, run 1 = 4.97e5; call = inactive
sei (GeneID 37843) [DRSC04713]: stable assay Renilla, run 1 = 2.48e5; stable assay firefly, run 1 = 9.13e5; call = inactive
Pkc98E (GeneID 43428) [DRSC16791]: stable assay Renilla, run 1 = 7889; stable assay firefly, run 1 = 4.58e5; call = inactive
Pkc98E (GeneID 43428) [DRSC28311]: miRNA reporter change = reporter ratio lowered past the hit cutoff; call = inactive
Irk2 (GeneID 42770) [DRSC15569]: stable assay Renilla, run 1 = 9578; stable assay firefly, run 1 = 3.36e5; call = inactive
CG10680 (GeneID 35282) [DRSC02093]: stable assay Renilla, run 1 = 6263; stable assay firefly, run 1 = 4.12e5; call = inactive
CG11041 (GeneID 37278) [DRSC06025]: stable assay Renilla, run 1 = 7422; stable assay firefly, run 1 = 4.31e5; call = inactive
cGlr1 (GeneID 36744) [DRSC06270]: stable assay Renilla, run 1 = 6386; stable assay firefly, run 1 = 4.06e5; call = inactive
CG11125 (GeneID 35669) [DRSC06042]: stable assay Renilla, run 1 = 6818; stable assay firefly, run 1 = 2.65e5; call = inactive
CG6790 (GeneID 41388) [DRSC16117]: stable assay Renilla, run 1 = 8328; stable assay firefly, run 1 = 6.15e5; call = inactive
CG32085 (GeneID 39311) [DRSC10138]: stable assay Renilla, run 1 = 5710; stable assay firefly, run 1 = 5.45e5; call = inactive
CG32085 (GeneID 39311) [DRSC10139]: stable assay Renilla, run 1 = 5311; stable assay firefly, run 1 = 4.62e5; call = inactive
CG32085 (GeneID 39311) [DRSC10576]: stable assay Renilla, run 1 = 7860; stable assay firefly, run 1 = 5.29e5; call = inactive
CG8765 (GeneID 40147) [DRSC11041]: stable assay Renilla, run 1 = 5455; stable assay firefly, run 1 = 2.59e5; call = inactive
CG8765 (GeneID 40147) [DRSC23043]: stable siRNA reporter change = reporter ratio raised past the hit cutoff; stable assay Renilla, run 1 = 1384; stable assay firefly, run 1 = 59901; call = inactive
CG2444 (GeneID 32121) [DRSC19846]: stable assay Renilla, run 1 = 4691; stable assay firefly, run 1 = 4.48e5; call = inactive
tin (GeneID 42536) [DRSC17083]: stable siRNA reporter change = reporter ratio lowered past the hit cutoff; stable assay Renilla, run 1 = 8566; stable assay firefly, run 1 = 7.08e5; call = inactive
tin (GeneID 42536) [DRSC22853]: stable assay Renilla, run 1 = 3760; stable assay firefly, run 1 = 3.02e5; call = inactive
tin (GeneID 42536) [DRSC23248]: stable assay Renilla, run 1 = 4236; stable assay firefly, run 1 = 2.60e5; call = inactive

Reformatted: results already given.
target | amplicon | stable siRNA reporter change | miRNA reporter change | stable assay Renilla, run 1 | stable assay firefly, run 1 | call
CG8765 (GeneID 40147) | DRSC11041 | – | – | 5455 | 2.59e5 | inactive
CG8765 (GeneID 40147) | DRSC23043 | reporter ratio raised past the hit cutoff | – | 1384 | 59901 | inactive
CG2444 (GeneID 32121) | DRSC19846 | – | – | 4691 | 4.48e5 | inactive
